Measured values as given in PubChem BioAssay AID504467 (National Center for Advancing Translational Sciences (NCATS), 2011).
Hit rate of the full screen: of about 330,000 compounds, about 7,700 (2.3%) were called active. The inconclusive results got no clear call from the source; some entries with a clear call stand among them for comparison. Calls come from the whole dose curve; as a rule, active = well fitted inhibition curve with a large enough effect; inconclusive = small, poorly fitted or top-dose-only effect, or effect the other way; inactive = flat fitted curve, though single readings scatter. A potency beside an inconclusive call is a rough fit, not a confirmed value.

Experiment: qHTS screen for small molecules that inhibit ELG1-dependent DNA repair in human embryonic kidney (HEK293T) cells expressing luciferase-tagged ELG1; note: nearly all actives have a fitted effect of over 55% in size
Conditions: HEK293T ELG1-luciferase reporter, luminescence, 16 h, DNA damage induced by 5-fluorouridine; series mostly up to 46.1 µM
In short: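 5-Fluorouridine DNA damage + compound/DMSO, 2,000 cells/well, 16 h, 37 °C/5% CO2. ONE-Glo, 30 min RT, luminescence. Readout = decrease in reporter signal.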
Potency is the fitted concentration of half-maximal effect.

Question: With Cc1cnc(NC(=O)NCC2CCCC(CNC(=O)Nc3ncc(C)s3)C2)s1 (stereo unspecified) as the molecule, how does the Potency read?
Answer: active: 20.6 µM

Question: With O=C1CC(N(Cc2ccco2)C(=O)Nc2ccc(F)cc2)C(=O)N1c1ccc(F)cc1 (stereo unspecified) as the molecule, how does the Potency read?
Answer: inconclusive: 11.6 µM [inhibitor, partial curve]

Question: Which Potency does the source give for C=CCOc1cccc(/C=N/NC(=O)CN(c2cc(Cl)ccc2OC)S(=O)(=O)c2ccc(C)c([N+](=O)[O-])c2)c1 here?
Answer: inactive

Question: Which Potency does the source give for Cc1cc(S(=O)(=O)Nc2nc(CN3CCOCC3)nc3sc4c(c23)CCC4)ccc1F here?
Answer: inactive

Question: Which Potency does the source give for COP(=O)(OC)C(Nc1ccc(C)cc1)c1ccc([N+](=O)[O-])cc1 (stereo unspecified) here?
Answer: inconclusive: 16.4 µM [activator, partial curve]

Question: With COc1ccc(-c2cc(C(=O)n3cnc4ccccc43)c3ccccc3n2)cc1 as the molecule, how does the Potency read?
Answer: inactive

Question: Which Potency does the source give for CC1CN(C2CCN(C(=O)COc3ccc(Cl)cc3)CC2)CC(C)O1 (stereo unspecified) here?
Answer: inactive

Question: With CCOC(=O)C1=C(C)NC(SC)=C(C#N)C1CC(C)C (stereo unspecified) as the molecule, how does the Potency read?
Answer: active: 10.3 µM

Question: With O=C(Nc1ncc([N+](=O)[O-])s1)c1ccccc1Br as the molecule, how does the Potency read?
Answer: inactive

Question: Which Potency does the source give for COc1ccc2[nH]c(C)c(CCNC(=S)Nc3cc(C)ccc3C)c2c1 here?
Answer: inactive

Question: Which Potency does the source give for CC(=O)Nc1ccc(S(=O)(=O)Nc2ccc3nc(C)sc3c2)cc1 here?
Answer: inconclusive: 2.31 µM [inhibitor, full curve]

Question: For Cc1ccc2c(nc3s/c(=C/c4cccs4)c(=O)n32)c1C, which Potency is on record?
Answer: inconclusive: 25.9 µM [activator, partial curve, poor fit]

Question: Which Potency does the source give for COc1ccccc1CCC(=O)Nc1nc2ccccc2[nH]1 here?
Answer: inconclusive: 5.8 µM [activator, full curve]

Question: With O=C(Nc1nc(-c2ccco2)c(-c2ccco2)s1)c1ccco1 as the molecule, how does the Potency read?
Answer: inconclusive: 4.61 µM [activator, single point]

Question: Which Potency does the source give for COCCN1C(=O)C(O)=C(C(C)=O)C1c1ccc(F)cc1 (stereo unspecified) here?
Answer: inconclusive: 6.51 µM [inhibitor, partial curve, poor fit]

Question: With CCOc1ccc(NCc2cccn2-c2nnc(N3CCC(C(=O)NCCCN4C(C)CCCC4C)CC3)s2)cc1 (stereo unspecified) as the molecule, how does the Potency read?
Answer: inactive

Question: For O=C(Nc1ccccc1)c1sc(N2CCOCC2)nc1-c1ccccc1, which Potency is on record?
Answer: inactive

Question: For CC12CC3(C)CC(C)(C1)CC(C(=O)NCC(=O)O)(C2)C3, which Potency is on record?
Answer: inconclusive: 20.6 µM [activator, partial curve, poor fit]

Question: For COC(=O)c1sc2nc(-c3ccco3)ccc2c1N, which Potency is on record?
Answer: inconclusive: 2.31 µM [activator, partial curve]

Question: For COc1ccc(CCNC(=O)c2cc(=O)c3cc(C)ccc3o2)cc1, which Potency is on record?
Answer: inactive

Question: For Cc1cc(C(=O)CSc2nnc(N)s2)c(C)n1Cc1ccco1, which Potency is on record?
Answer: inconclusive: 2.59 µM [activator, partial curve]
